Assay results taken from the supplement of paper PMC12823440, “Inhibitors supercharge kinase turnover through native proteolytic circuits” (Nature, 2025).
Structures can show the parent of a compound that is named as a salt. Some of the results follow. The calls rarely recur for the same compound in another form.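 In K562 cells expressing nanoluciferase-fused kinases, luminescence was recorded at 4 h intervals between 2 and 18 h, normalized as percent of control with DMSO at 100% and a positive control at 0%. A significant (2 sigma) signal drop marks a time point as decreased. The authors' rule for a hit is not shown and takes in more than the number of time points.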

Chains of the proteins cited; added tags and fusions are not shown. Lines headed by an entry give the natural chain unless they say otherwise; changes in a name come on top.
UniProt Q16288, whole entry, looked up: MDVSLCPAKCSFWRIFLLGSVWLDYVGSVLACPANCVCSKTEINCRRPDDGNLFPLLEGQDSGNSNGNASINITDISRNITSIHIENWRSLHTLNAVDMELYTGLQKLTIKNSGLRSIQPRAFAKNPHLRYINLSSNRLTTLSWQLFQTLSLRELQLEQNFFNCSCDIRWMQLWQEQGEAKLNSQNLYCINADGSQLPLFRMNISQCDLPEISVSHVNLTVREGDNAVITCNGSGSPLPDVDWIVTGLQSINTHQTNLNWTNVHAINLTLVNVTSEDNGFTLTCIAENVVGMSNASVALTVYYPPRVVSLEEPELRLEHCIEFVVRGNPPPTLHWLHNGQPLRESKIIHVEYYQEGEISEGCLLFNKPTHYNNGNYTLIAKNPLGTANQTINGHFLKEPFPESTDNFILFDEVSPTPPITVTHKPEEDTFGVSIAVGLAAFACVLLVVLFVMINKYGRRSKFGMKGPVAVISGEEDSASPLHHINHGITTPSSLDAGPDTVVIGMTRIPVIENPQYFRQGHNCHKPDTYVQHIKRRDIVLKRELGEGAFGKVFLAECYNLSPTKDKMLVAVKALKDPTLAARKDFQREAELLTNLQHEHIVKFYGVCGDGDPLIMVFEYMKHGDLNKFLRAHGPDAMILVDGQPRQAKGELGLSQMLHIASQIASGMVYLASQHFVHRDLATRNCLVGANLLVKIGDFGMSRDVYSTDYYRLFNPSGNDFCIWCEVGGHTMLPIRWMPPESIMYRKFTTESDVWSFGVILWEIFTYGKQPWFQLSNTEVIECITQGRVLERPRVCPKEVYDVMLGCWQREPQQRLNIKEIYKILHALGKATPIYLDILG
UniProt Q96KB5: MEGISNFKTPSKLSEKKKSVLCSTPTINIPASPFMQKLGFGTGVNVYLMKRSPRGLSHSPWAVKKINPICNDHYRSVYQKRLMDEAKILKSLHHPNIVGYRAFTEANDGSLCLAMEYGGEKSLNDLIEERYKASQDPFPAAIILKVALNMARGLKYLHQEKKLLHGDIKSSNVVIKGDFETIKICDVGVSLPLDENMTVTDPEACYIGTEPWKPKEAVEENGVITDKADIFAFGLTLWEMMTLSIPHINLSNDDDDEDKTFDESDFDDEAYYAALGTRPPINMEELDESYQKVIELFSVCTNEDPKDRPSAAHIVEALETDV
UniProt P09619, whole entry: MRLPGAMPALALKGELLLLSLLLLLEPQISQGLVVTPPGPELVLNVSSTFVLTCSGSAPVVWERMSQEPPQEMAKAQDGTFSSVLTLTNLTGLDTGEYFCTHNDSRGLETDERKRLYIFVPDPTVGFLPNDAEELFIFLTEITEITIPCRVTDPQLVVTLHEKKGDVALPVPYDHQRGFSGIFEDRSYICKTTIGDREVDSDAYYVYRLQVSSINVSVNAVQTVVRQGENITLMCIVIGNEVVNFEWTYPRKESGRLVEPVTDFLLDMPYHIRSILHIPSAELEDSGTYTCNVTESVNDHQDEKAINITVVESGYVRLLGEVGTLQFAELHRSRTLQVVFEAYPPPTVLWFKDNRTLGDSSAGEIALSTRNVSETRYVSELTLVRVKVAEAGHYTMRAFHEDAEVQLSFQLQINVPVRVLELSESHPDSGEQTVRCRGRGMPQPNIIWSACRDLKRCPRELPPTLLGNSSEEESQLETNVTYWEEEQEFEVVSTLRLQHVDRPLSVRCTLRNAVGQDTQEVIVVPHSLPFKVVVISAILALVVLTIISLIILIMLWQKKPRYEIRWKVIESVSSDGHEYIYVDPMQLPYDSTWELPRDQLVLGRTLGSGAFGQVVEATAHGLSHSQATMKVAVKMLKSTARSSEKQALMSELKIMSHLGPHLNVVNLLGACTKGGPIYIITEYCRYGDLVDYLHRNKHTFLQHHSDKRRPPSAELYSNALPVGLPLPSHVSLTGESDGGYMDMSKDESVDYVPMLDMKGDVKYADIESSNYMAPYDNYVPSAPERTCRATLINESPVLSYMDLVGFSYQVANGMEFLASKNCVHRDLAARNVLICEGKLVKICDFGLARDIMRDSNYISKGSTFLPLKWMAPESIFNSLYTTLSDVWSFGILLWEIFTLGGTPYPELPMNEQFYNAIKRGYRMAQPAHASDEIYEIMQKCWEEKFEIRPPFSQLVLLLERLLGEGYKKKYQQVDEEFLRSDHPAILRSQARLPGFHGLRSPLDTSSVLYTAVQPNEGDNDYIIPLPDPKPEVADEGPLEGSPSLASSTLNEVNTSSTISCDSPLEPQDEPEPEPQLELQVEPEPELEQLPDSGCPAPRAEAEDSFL
UniProt Q15118, whole entry, looked up: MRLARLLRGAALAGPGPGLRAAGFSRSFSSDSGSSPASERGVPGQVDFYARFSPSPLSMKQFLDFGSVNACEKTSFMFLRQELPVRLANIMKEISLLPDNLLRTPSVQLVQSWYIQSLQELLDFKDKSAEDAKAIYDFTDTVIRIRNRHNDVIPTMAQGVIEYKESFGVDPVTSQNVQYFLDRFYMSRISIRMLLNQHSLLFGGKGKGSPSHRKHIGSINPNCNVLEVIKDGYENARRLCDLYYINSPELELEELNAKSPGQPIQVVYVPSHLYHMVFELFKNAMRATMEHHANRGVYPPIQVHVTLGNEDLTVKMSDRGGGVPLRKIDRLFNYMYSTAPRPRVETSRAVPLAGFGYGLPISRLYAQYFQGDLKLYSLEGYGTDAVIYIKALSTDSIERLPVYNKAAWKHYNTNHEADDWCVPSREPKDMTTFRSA
UniProt P42356, whole entry, looked up: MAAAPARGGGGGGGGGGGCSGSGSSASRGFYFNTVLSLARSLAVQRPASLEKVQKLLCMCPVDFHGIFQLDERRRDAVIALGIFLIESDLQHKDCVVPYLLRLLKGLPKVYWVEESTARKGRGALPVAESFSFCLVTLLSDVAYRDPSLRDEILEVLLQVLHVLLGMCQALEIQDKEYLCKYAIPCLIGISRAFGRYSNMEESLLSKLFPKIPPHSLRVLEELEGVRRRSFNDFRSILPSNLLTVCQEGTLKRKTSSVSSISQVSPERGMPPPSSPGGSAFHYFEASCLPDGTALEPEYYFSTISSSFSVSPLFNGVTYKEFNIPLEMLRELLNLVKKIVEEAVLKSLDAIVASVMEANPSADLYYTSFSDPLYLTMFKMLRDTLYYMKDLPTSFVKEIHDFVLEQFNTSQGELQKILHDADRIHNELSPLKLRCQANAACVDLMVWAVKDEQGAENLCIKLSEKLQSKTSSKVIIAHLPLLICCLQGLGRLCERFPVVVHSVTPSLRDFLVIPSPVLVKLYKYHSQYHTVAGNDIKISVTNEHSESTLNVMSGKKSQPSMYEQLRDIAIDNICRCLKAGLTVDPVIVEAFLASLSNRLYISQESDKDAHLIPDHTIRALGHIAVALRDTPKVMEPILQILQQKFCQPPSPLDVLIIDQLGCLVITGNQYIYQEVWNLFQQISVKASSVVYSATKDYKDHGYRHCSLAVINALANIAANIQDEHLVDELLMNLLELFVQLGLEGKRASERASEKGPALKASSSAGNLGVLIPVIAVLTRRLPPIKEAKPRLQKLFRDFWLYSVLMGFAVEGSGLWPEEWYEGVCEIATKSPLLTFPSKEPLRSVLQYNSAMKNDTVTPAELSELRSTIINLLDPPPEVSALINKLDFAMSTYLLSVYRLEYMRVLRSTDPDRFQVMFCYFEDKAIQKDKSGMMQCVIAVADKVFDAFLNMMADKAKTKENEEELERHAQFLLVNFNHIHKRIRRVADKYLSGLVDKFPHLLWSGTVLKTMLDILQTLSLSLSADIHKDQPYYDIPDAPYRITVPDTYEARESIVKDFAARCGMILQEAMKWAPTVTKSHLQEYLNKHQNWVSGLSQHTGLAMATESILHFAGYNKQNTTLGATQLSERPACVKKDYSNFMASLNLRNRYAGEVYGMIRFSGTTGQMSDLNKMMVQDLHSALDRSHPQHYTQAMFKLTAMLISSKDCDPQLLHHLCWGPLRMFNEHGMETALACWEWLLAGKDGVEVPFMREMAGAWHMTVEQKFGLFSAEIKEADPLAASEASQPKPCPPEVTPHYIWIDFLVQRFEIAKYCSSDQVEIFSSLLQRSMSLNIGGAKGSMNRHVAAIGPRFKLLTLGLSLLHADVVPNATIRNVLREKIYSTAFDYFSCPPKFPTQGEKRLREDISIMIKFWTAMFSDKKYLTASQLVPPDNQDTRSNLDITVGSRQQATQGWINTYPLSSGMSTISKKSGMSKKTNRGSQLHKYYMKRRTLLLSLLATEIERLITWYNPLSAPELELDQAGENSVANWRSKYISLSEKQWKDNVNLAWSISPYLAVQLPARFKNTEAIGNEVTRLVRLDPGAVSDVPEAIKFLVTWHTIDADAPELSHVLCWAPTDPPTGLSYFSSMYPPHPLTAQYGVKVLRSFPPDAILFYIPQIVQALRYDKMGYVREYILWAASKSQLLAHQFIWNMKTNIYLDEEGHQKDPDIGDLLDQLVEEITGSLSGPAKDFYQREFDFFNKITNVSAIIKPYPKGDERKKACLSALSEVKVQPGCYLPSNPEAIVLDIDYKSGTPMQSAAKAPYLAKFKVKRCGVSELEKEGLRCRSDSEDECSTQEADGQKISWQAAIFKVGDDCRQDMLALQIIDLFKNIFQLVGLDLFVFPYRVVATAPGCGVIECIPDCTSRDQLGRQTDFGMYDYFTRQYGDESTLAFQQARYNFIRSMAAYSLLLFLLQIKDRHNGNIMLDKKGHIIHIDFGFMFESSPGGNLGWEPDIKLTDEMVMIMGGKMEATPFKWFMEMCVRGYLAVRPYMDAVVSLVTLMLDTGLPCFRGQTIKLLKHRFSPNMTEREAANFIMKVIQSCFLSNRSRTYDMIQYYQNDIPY
UniProt Q9UBF8: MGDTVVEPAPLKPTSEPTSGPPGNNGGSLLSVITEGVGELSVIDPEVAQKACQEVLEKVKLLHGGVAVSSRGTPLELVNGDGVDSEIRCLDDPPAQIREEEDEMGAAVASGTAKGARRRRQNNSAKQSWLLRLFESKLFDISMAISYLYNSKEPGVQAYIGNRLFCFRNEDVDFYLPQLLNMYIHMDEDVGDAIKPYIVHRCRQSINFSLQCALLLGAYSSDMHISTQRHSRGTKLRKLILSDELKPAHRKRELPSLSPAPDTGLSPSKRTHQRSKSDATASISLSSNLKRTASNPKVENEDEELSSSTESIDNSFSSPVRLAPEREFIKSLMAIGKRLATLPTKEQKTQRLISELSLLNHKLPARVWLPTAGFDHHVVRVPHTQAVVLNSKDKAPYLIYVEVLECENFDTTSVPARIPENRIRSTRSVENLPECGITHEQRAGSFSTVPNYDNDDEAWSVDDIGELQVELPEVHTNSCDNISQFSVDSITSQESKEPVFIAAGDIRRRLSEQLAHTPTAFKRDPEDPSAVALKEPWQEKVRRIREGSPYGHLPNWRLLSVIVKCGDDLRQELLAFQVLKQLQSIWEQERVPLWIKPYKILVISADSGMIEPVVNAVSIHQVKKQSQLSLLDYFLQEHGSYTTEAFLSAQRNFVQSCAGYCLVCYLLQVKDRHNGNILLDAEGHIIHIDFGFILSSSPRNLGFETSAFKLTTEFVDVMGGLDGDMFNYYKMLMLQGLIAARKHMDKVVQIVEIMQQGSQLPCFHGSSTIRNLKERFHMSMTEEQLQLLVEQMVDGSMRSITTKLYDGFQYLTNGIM
UniProt Q13131: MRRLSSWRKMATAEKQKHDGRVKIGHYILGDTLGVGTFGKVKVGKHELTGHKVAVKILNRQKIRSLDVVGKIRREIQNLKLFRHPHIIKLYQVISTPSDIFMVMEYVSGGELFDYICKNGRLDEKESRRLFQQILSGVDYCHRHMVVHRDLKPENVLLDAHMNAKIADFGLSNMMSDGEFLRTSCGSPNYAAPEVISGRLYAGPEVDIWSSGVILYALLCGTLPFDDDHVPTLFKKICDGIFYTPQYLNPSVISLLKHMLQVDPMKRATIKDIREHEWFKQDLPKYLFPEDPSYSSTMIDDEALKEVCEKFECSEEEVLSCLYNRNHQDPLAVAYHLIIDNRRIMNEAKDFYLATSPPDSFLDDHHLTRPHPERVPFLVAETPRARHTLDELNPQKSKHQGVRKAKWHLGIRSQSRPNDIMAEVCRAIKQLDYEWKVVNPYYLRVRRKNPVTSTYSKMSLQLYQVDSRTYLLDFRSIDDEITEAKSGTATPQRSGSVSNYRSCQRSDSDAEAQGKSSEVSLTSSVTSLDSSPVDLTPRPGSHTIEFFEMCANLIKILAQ

Experiments:
Test in all cases: number of time points (of 5) at which kinase-Nluc abundance scored as decreased, DMSO-normalised (count); higher = more persistent destabilization
Details in all cases: K562; 2-18 h
NTRK3 = NTRK3 (UniProt Q16288)
PAK4 = PAK4 (UniProt O96013)
PBK = PBK (UniProt Q96KB5)
PDGFRB = PDGFRB (UniProt P09619)
PDK1 = PDK1 (UniProt Q15118)
PDPK1 = PDPK1 (UniProt O15530)
PIK4CA = PIK4CA (UniProt P42356)
PIK4CB = PIK4CB (UniProt Q9UBF8)
PLK1 = PLK1 (UniProt P53350)
PRKAA1 = PRKAA1 (UniProt Q13131)

| Structure (SMILES) | number of time points (NTRK3) | number of time points (PAK4) | number of time points (PBK) | number of time points (PDGFRB) | number of time points (PDK1) | number of time points (PDPK1) | number of time points (PIK4CA) | number of time points (PIK4CB) | number of time points (PLK1) | number of time points (PRKAA1) |
| --- | --- | --- | --- | --- | --- | --- | --- | --- | --- | --- |
| CN(C)c1ccc(/C=C2\C(=O)Nc3ccccc32)c2ccccc12 (10 µM) | 0 | 0 | 0 | 0 | 0 | 0 | 0 | 0 | 0 | 0 |
| Cc1nc(Nc2cnn(C3CCNCC3)c2)nc2c1N(C)C(=O)c1cc3ccccc3cc1N2C (2.5 µM) | 0 | 0 | 0 | 0 | 0 | 0 | 0 | 0 | 0 | 0 |
| COc1cc2nccc(Nc3cccc(Oc4ccccc4)c3)c2cc1OC (2.5 µM) | 0 | 0 | 0 | 0 | 0 | 1 | 0 | 0 | 0 | 0 |
| COCCNc1cc(NC(=O)N2CCCc3cc(CN4CCOCC4=O)c(C=O)nc32)ncc1C#N (10 µM) | 0 | 0 | 0 | 0 | 0 | 0 | 0 | 0 | 0 | 0 |
| COc1cc(N2CCC(N3CCN(C)CC3)CC2)ccc1Nc1ncnc(Nc2ccccc2S(=O)(=O)C(C)C)n1 (10 µM) | 0 | 0 | 0 | 0 | 0 | 0 | 0 | 0 | 0 | 0 |
| COc1cc2nnc(C(N)=O)c(Nc3ccc(C)cc3F)c2cc1N1CCN(CCO)CC1 (2.5 µM) | 0 | 0 | 0 | 0 | 0 | 0 | 0 | 0 | 0 | 0 |
| N#Cc1cnc(Nc2cc(NC[C@H]3CNCCO3)c(C(F)(F)F)cn2)cn1 (10 µM) | 2 | 0 | 0 | 0 | 0 | 0 | 0 | 0 | 0 | 1 |
| CCCS(=O)(=O)N[C@H]1C[C@@H](N(C)c2ncnc3[nH]ccc23)C1 [Abrocitinib] (10 µM) | 0 | 0 | 0 | 0 | 0 | 0 | 0 | 0 | 0 | 0 |
| CC(=O)Nc1nc(C)c(-c2cc(C)c3c(c2)CN([C@@H](C)C2CC2)C3=O)s1 (10 µM) | 0 | 0 | 0 | 0 | 0 | 0 | 0 | 0 | 0 | 0 |
| NC(=O)c1c(NC(=O)C2CC2)sc2c1CCCC2 (10 µM) | 0 | 0 | 0 | 0 | 0 | 0 | 0 | 0 | 0 | 0 |
| O=C(CCl)c1c[nH]c2ccccc12 (2.5 µM) | 0 | 0 | 0 | 0 | 0 | 0 | 0 | 0 | 0 | 0 |
| CN(C)CCOc1cc(-c2cn[nH]c2)ccc1NC(=O)C1COc2ccccc2O1 (centres undefined) (10 µM) | 0 | 0 | 0 | 0 | 0 | 0 | 0 | 0 | 0 | 0 |
| N#Cc1cc(-c2ccnc(Nc3ccc(N4CCOCC4)cc3)n2)ccc1OC1CCOCC1 (10 µM) | 0 | 0 | 0 | 0 | 0 | 0 | 0 | 0 | 0 | 0 |
| Cc1cncc2cccc(S(=O)(=O)N3CCCNC[C@@H]3C)c12 [H-1152 (dihydrochloride)] (10 µM) | 0 | 0 | 0 | 0 | 0 | 0 | 0 | 0 | 0 | 0 |
| CCOC(=O)c1c(Nc2ccccc2Cl)oc(/C=C2\C=Nc3ncccc32)c1O (10 µM) | 0 | 0 | 0 | 0 | 0 | 0 | 0 | 0 | 0 | 0 |
| COc1ccc2cc1Oc1ccc(cc1)C[C@H]1c3cc(c(OC)cc3CCN1C)Oc1c(O)c(OC)cc3c1[C@H](C2)N(C)CC3 [Fangchinoline] (2.5 µM) | 0 | 0 | 0 | 0 | 0 | 0 | 0 | 0 | 0 | 0 |
| N#CC(=C(/N)Sc1ccccc1N)/C(C#N)=C(\N)Sc1ccccc1N (10 µM) | 0 | 0 | 0 | 0 | 0 | 4 | 0 | 0 | 0 | 0 |
| COc1c(Nc2ncc(Cl)c(N[C@H]3[C@@H](C(N)=O)[C@@H]4C=C[C@H]3C4)n2)ccc2c1CC[C@@H](N1CCOCC1)CC2 (10 µM) | 0 | 0 | 0 | 0 | 0 | 0 | 0 | 0 | 0 | 0 |
| CC(C)Cn1ncc2cc(Oc3ccc(F)cc3F)c(C(=O)NCCN(C)C)cc21 [p38α inhibitor 1] (10 µM) | 0 | 0 | 0 | 0 | 0 | 0 | 0 | 0 | 0 | 0 |
| CNCc1cc(Oc2ccc3c(ccn3C(=O)Nc3cc(C(F)(F)F)n(C)n3)c2)ncn1 [Acrizanib] (10 µM) | 0 | 0 | 0 | 0 | 0 | 0 | 0 | 0 | 0 | 0 |
| CS(=O)(=O)c1ccc([C@@H](CC2CCCC2)C(=O)Nc2nccs2)cc1 (10 µM) | 0 | 0 | 0 | 0 | 0 | 0 | 0 | 0 | 0 | 0 |
| O=C(Nc1ccnc(NC(=O)C2CC2)c1)c1c(Cl)cccc1Cl (10 µM) | 0 | 0 | 0 | 0 | 0 | 1 | 0 | 0 | 0 | 0 |
| Cc1cccc(-c2nn3c(c2-c2ccnc4ccc(C(N)=O)cc24)CCC3)n1 [Galunisertib] (10 µM) |  | 0 | 0 | 0 | 0 | 0 | 0 | 0 | 0 | 0 |
| Nc1ccc(-c2cccc(C(=O)Nc3cnc4nc(N5CCOCC5)oc4c3)n2)cn1 (10 µM) | 0 | 0 | 0 | 0 | 0 | 0 | 0 | 0 | 0 | 0 |

Entries of single compounds, quoted from the list. Order of values: number of time points (NTRK3) | number of time points (PAK4) | number of time points (PBK) | number of time points (PDGFRB) | number of time points (PDK1) | number of time points (PDPK1) | number of time points (PIK4CA) | number of time points (PIK4CB) | number of time points (PLK1) | number of time points (PRKAA1)
`COc1cc2nnc(C(N)=O)c(Nc3ccc(C)cc3F)c2cc1N1CCN(CCO)CC1` (2.5 µM) as listed: 0 | 0 | 0 | 0 | 0 | 0 | 0 | 0 | 0 | 0
`CS(=O)(=O)c1ccc([C@@H](CC2CCCC2)C(=O)Nc2nccs2)cc1` (10 µM) as listed: 0 | 0 | 0 | 0 | 0 | 0 | 0 | 0 | 0 | 0
